Results as given in PubChem BioAssay AID2685 (National Center for Advancing Translational Sciences (NCATS), 2010).
This is one part of the list. Further columns of the screen follow, without active or inactive calls. Most of these compounds were active or inconclusive in the main read-out, so they are no random draw. Potencies come from curve fits of mixed quality, noted in brackets.

Assay: qHTS Assay for Lipid Storage Modulators in Drosophila S3 Cells;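 as to cell number change: cells counted by Cell Tracker Red CMTPX staining in the red channel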
Details: BODIPY lipid droplet fluorescence, 18-24 h; for cell number change: measured here: cell count max response, cells fed with added oleic acid
Summary of the method: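 Drosophila S3 cells got compounds at several concentrations plus oleic acid (400 uM solution). Laser-scanning cytometry with 488 nm excitation read lipid droplets at 500-530 nm and cells at 575-640 nm. Percent activity was relative to 20 uM Triacsin C.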

[1] = measured here: lipid fluorescence (Fed channel) AC50, cells fed with added oleic acid

Structure (SMILES)	cell number change [%]	AC50 [1]	AC50 (measured here: cell number channel AC50, cells fed with added oleic acid)
COc1cc(/C=C2\N=C(c3c(-c4ccccc4)noc3C)OC2=O)ccc1OC(C)=O	14.9	2590 nM [rising, single point]	
Cc1ccc(NC(=O)NCCCCc2ccccc2)cc1	-29.9	35500 nM [falling, single point]	
Nc1nnnn1/N=C/c1ccc(O)cc1	-1.03		
CCOC(=O)CSc1nc(C)c(C(C)=O)cc1C#N		103 nM [rising, full curve, poor fit]	
COc1ccccc1NC(=O)COc1ccc2c(c1)OCO2			1460 nM [falling, partial curve]
CCc1ccc(NC(=O)c2cccc(NC3=NC4CS(=O)(=O)CC4S3)c2)cc1 (stereo not given)	22.5	4110 nM [rising, partial curve, poor fit]	
Cc1ccc(Nc2cc(C)c3ccc(O)cc3n2)cc1C	-4.89	1640 nM [rising, partial curve]	
O=C(COc1ccc(Br)cc1)NCCNC(=O)c1cccnc1	7.41	31600 nM [rising, single point]	
CC1CC(C)(C)CC2(C1)NC(=O)N(CC(=O)Nc1cc([N+](=O)[O-])ccc1F)C2=O (stereo not given)	3.32	1460 nM [rising, full curve]	
COc1ccc(NC(=O)N2CCCC2C(=O)NCc2cccs2)cc1 (stereo not given)	18.5	580 nM [falling, single point]	
COc1ccc(OC)c(NC(=O)CCN2CC(C)OC(C)C2)c1 (stereo not given)	10	6510 nM [rising, single point]	
COc1ccc(NC(=O)CSc2nnc(-c3ccoc3C)n2CCc2ccccc2)cc1	24.6	461 nM [rising, partial curve, poor fit]	
CSc1nsc(SCC(=O)N2CCCc3ccccc32)n1	-25.9		
O=C(CN(C(=O)c1csnn1)c1ccc(F)c(Cl)c1)NC1CCCC1	10.1		
COc1cc(CNCCNCC(C)O)ccc1OCc1ccc(Cl)nc1 (stereo not given)	-15.2	146 nM [falling, full curve, poor fit]	
O=C(NC(=S)N1CCN(c2ccccc2)CC1)c1ccc(S(=O)(=O)N2CCOCC2)cc1	-9.71	13000 nM [rising, partial curve, poor fit]	
Cc1ccccc1C1C(=O)c2ccccc2C1=O		29100 nM [falling, single point]	
O=C(O)C1CCN(C(=O)c2ccccc2N2C(=O)[C@@H]3Cc4c([nH]c5ccccc45)C(c4cccc(Cl)c4)N3C2=O)CC1 (stereo not given in full)	-1.17	130 nM [rising, full curve, poor fit]	

Single records, as listed above.
O=C(NC(=S)N1CCN(c2ccccc2)CC1)c1ccc(S(=O)(=O)N2CCOCC2)cc1 is entered as cell number change [%]: -9.71; AC50 [1]: 13000 nM [rising, partial curve, poor fit]
Cc1ccccc1C1C(=O)c2ccccc2C1=O is entered as AC50 [1]: 29100 nM [falling, single point]
